# Laboratory results taken from the supplement of paper PMC11732987, “Enantioselective OTUD7B fragment discovery through chemoproteomics screening and high-throughput optimisation” (Communications Chemistry, 2025).
# The chains behind the UniProt entries cited, without tags or fusion partners. Where a name states a change or a piece, a line headed by the entry shows the natural chain unless it says otherwise. Residues count along the entry.
# UniProt Q6NTE8: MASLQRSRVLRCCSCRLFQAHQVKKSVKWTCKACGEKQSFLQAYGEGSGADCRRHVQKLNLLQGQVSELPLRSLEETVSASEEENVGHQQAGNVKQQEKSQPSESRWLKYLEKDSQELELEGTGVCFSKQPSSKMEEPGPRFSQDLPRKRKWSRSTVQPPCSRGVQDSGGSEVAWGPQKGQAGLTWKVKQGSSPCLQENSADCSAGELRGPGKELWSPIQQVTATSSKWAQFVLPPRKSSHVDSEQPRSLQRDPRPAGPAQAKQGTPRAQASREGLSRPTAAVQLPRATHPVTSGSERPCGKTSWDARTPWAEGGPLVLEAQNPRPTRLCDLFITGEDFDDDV
# UniProt Q9NU22: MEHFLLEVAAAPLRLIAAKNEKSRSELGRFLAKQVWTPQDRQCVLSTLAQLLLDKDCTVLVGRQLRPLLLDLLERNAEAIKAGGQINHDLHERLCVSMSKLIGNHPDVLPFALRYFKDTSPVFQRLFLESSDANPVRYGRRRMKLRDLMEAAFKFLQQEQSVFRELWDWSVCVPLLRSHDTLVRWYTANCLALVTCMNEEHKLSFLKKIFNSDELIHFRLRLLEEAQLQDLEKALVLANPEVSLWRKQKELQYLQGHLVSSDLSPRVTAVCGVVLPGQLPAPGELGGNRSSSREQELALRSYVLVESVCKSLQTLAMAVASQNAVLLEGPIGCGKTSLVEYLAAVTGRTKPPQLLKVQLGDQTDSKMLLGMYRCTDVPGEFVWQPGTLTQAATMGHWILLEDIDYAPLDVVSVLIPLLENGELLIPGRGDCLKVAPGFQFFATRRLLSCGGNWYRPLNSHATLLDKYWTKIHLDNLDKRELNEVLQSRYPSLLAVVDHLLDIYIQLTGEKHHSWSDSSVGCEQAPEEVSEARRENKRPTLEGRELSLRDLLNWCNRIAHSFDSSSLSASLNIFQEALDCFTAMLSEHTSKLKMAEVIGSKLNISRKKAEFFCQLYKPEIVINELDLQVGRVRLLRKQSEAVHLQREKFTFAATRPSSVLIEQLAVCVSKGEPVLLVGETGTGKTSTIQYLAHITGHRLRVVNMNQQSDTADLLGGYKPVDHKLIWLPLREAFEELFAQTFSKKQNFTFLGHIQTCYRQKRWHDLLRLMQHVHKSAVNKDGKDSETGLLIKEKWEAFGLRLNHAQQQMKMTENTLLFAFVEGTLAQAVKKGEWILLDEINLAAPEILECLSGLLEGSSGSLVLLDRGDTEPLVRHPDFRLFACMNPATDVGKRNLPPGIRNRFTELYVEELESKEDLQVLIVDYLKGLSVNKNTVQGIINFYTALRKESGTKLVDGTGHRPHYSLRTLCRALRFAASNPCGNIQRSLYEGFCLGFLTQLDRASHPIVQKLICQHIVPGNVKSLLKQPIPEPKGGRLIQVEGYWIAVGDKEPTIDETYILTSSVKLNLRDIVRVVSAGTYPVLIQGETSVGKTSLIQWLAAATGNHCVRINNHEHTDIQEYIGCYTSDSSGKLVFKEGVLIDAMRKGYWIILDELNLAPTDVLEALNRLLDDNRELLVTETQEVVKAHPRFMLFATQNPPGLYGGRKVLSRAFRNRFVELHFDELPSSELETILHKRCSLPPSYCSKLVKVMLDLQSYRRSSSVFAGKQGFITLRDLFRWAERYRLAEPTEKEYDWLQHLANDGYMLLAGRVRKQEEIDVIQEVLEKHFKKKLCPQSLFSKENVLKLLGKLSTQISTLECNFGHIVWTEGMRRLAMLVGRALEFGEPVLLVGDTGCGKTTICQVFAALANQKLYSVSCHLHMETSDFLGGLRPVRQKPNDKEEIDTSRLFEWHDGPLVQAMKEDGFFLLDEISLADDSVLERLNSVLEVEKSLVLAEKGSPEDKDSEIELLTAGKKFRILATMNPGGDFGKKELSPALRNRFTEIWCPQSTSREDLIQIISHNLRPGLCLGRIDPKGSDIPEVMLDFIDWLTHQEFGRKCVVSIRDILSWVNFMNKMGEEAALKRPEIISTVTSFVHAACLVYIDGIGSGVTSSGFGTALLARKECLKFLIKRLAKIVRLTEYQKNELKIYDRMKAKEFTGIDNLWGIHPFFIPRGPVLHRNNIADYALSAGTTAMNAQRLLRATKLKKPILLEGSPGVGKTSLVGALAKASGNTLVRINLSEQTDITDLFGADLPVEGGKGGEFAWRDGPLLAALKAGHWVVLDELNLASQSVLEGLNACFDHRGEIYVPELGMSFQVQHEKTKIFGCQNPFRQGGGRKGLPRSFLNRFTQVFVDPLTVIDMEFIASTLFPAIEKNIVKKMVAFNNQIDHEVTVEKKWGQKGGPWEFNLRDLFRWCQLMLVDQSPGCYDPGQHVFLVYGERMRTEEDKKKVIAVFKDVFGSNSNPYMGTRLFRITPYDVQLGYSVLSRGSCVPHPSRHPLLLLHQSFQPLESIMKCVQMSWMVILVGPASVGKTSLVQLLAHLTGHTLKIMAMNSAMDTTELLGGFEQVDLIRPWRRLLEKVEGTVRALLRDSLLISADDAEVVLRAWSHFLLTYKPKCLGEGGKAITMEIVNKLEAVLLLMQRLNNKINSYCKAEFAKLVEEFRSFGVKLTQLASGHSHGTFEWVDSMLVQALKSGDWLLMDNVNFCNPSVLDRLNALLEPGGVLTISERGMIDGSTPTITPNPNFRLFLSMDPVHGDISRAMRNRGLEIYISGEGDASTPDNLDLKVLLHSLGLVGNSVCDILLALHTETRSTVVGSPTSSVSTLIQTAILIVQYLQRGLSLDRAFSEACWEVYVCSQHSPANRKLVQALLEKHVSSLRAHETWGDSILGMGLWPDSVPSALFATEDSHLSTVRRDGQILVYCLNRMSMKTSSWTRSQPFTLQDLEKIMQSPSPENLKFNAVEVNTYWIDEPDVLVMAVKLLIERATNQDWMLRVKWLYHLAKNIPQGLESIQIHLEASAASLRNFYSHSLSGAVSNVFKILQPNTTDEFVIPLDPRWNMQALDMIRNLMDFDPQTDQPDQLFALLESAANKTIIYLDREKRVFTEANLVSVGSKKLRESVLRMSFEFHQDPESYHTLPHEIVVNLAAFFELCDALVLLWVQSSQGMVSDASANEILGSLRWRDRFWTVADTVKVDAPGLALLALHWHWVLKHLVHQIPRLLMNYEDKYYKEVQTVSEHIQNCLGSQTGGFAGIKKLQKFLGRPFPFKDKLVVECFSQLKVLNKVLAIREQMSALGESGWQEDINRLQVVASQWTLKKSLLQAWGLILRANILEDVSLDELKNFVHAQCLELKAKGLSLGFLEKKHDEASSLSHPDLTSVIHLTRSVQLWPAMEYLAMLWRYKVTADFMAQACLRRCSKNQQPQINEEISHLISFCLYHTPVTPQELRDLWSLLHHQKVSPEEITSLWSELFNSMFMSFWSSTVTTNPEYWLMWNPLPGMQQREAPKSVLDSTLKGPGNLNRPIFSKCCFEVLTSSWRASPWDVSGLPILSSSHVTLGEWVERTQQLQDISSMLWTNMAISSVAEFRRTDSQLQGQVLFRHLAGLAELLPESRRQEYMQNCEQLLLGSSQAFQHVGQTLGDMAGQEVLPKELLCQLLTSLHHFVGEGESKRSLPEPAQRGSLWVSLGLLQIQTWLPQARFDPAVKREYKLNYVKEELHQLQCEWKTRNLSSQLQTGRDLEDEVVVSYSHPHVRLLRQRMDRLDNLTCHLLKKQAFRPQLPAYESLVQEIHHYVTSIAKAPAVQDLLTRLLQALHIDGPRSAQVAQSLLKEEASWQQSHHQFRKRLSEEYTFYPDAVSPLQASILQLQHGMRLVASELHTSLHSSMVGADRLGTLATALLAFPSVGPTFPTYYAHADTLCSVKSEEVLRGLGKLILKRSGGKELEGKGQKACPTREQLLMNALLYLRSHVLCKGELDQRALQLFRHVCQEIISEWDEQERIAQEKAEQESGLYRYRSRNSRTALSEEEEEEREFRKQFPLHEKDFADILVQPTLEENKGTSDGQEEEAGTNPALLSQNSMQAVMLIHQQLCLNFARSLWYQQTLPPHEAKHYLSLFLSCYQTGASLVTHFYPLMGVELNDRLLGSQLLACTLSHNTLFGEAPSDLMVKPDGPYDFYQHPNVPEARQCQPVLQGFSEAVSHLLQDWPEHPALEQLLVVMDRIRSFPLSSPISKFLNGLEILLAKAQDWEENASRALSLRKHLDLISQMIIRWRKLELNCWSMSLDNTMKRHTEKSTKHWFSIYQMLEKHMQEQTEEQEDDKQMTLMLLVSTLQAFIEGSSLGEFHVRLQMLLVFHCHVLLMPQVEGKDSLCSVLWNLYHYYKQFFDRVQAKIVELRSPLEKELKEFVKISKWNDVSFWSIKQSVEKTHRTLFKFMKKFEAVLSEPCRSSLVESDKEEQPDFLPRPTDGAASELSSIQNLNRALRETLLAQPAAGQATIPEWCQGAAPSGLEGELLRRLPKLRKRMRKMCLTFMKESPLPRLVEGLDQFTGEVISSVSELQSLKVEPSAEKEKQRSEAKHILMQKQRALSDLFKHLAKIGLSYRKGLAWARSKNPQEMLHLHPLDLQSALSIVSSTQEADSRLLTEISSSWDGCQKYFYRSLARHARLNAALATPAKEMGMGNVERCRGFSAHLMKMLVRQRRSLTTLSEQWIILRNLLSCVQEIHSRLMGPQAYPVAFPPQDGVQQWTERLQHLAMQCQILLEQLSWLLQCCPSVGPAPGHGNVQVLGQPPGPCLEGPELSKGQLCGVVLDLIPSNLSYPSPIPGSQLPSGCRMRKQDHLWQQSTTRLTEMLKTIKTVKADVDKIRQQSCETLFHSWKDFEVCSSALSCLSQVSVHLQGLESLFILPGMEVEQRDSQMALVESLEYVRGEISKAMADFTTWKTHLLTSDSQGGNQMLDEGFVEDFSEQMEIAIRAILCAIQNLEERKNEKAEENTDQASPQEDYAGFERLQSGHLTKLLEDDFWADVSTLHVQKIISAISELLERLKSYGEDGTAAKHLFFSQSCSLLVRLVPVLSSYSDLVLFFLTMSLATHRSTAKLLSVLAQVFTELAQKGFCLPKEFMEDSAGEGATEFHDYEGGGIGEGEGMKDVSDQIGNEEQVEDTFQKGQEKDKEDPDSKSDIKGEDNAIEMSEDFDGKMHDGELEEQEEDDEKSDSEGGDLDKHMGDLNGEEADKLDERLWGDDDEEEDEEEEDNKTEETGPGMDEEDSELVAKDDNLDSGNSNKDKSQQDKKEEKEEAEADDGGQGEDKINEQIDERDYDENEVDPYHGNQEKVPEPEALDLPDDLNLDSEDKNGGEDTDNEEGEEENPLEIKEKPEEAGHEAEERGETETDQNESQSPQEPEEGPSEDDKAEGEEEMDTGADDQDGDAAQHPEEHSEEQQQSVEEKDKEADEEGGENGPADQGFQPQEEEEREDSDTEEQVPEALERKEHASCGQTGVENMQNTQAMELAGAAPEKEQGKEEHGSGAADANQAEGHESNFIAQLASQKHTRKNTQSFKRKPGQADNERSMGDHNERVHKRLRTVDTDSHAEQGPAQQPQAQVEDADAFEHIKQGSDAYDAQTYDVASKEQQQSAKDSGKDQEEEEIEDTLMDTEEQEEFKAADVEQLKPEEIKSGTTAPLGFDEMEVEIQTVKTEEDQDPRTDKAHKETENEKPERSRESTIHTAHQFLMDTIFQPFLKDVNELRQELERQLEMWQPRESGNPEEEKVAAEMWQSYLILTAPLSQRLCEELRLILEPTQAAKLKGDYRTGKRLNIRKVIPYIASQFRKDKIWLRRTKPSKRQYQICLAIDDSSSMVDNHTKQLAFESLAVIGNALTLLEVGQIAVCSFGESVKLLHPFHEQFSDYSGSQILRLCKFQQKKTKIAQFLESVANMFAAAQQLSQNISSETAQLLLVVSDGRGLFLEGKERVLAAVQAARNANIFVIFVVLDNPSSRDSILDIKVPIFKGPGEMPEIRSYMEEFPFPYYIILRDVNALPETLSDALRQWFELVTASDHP
# UniProt Q96EY8, 117-136: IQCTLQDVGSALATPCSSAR
# UniProt Q9NPA3, whole entry, looked up: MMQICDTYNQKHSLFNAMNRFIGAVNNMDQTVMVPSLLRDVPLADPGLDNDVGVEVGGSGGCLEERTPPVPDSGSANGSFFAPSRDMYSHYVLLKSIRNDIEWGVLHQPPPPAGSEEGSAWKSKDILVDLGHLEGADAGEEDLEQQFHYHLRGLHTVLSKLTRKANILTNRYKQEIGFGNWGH
# UniProt Q9Y3C7: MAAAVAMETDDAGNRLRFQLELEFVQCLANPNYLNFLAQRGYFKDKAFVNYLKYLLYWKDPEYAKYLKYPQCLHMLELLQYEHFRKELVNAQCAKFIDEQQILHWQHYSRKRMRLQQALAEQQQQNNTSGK
# UniProt Q86XN8, 176-197: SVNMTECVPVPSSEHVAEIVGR
# UniProt Q9NPJ6: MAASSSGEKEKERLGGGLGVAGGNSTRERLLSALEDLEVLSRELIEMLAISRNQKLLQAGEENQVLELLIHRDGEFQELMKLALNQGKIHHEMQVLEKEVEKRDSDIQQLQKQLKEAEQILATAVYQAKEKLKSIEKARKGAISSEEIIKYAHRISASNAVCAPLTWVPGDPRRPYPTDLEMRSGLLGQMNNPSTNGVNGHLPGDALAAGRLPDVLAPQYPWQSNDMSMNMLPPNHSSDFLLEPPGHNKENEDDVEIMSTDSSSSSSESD
# UniProt Q9BQP7, 64-84: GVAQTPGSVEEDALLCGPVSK
# This is one part of the list. The data scatter; read single values as rough.
# What was measured:
# [1] = compound: ClCC(=O)N[C@@H]1CCCc2ccccc12; test: log2 mean competition ratio of IA-DTB cysteine labelling (DMSO/compound) (log2 ratio); higher = stronger cysteine engagement by compound; conditions: treatment time: 4 h, cell line lysate: HEK293T
# Procedure: (§1)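 IA-DTB competitive cysteine chemoproteomics in HEK293T RIPA lysate. Lysates were treated with compound 29 or 30 at 50 or 200 µM for 4 h, then IA-DTB (500 µM, 1 h), trypsin-digested, NeutrAvidin-enriched and analysed by diaPASEF. Competition ratio = intensity DMSO / intensity compound (n=4 treated, n=64 DMSO); binding: mean log2 CR ≥ 1 and p ≤ 0.05 plus QC filters. Target is the cysteine site.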
# [2] = compound: ClCC(=O)N[C@H]1CCCc2ccccc12; test: as above; conditions: treatment time: 4 h, cell line lysate: HEK293T
# Procedure: as §1
Target,log2 mean competition ratio ([1]; 50 µM),log2 mean competition ratio ([1]; 200 µM),log2 mean competition ratio ([2]; 50 µM),log2 mean competition ratio ([2]; 200 µM)
MED12 C997 (UniProt Q93074),-0.0405,-0.393,0.0364,0.0658
MINDY3 C27 (UniProt Q9H8M7),0.0666,-0.122,0.0654,0.0015
MORC4 C116,0.214,0.0684,-0.195,0.13
MID2 C286,-0.814,-0.153,-0.0818,0.119
MPND C63,0.268,0.463,-0.138,-0.254
MPP2 C270,-0.037,-0.196,-0.338,0.117
MKNK1 C219 (UniProt Q9BUB5),-0.656,0.162,-0.81,-0.173
MRGBP C170 (UniProt Q9NV56),-0.121,0.0167,0.103,0.161
MIEF1 C359,-0.083,0.382,-0.0631,0.404
MMACHC C149 (UniProt Q9Y4U1),0.107,-0.422,0.174,-0.221
MED16 C584 (UniProt Q9Y2X0),-0.172,-0.147,-0.169,-0.0785
MRNIP C300 (UniProt Q6NTE8),-0.171,-0.151,-0.0733,0.597
MKLN1 C82 (UniProt Q9UL63),0.34,-0.214,0.436,-0.448
MDN1 C1011 (UniProt Q9NU22),0.266,-0.225,-0.268,-0.315
MEX3A C21 (UniProt A1L020),-0.129,0.138,0.12,0.157
MED1 C489 (UniProt Q15648),-0.143,-0.194,-0.28,-0.135
METAP2 C135 (UniProt P50579),0.19,-0.13,0.103,-0.063
MIS18BP1 C686,-0.169,0.0407,-0.0141,0.0231
MOB4 C51 (UniProt Q9Y3A3),-0.675,-0.921,-0.484,-0.203
MFSD5 C33 (UniProt Q6N075),-0.0139,0.232,0.21,0.237

Target,log2 mean competition ratio ([1]; 50 µM),log2 mean competition ratio ([1]; 200 µM),log2 mean competition ratio ([2]; 50 µM),log2 mean competition ratio ([2]; 200 µM)
"MMAB_(C119,C119,C132,C132) (UniProt Q96EY8)",0.23,-0.219,0.564,-0.262
MDN1 C4517 (UniProt Q9NU22),-0.0886,-0.078,-0.522,-0.144
MEPCE C54 (UniProt Q7L2J0),0.0176,-0.114,-0.0783,-0.0977
MID1IP1 C5 (UniProt Q9NPA3),-0.036,0.0516,-0.285,0.433
MED13 C1399 (UniProt Q9UHV7),,-0.313,-0.0911,0.0284
MOCS1 C218 (UniProt Q9NZB8),0.154,0.29,0.437,0.128
MED31 C93 (UniProt Q9Y3C7),-0.175,0.0217,-0.0712,0.0578
METTL26 C63 (UniProt Q96S19),-0.345,0.152,0.521,-0.206
MPZL1 C203 (UniProt O95297),-0.108,-0.135,0.0836,-0.0846
MKNK2 C225 (UniProt Q9HBH9),-0.0185,0.0227,-0.752,0.104
MICU1 C62 (UniProt Q9BPX6),0.0139,-0.0569,0.05,-0.182
MID1 C248 (UniProt O15344),0.342,-0.202,-0.0169,-0.333
MED14 C635 (UniProt O60244),0.149,0.265,0.143,0.29
MEX3D C182 (UniProt Q86XN8),-0.454,0.332,-0.115,-0.0903
MICU2 C8 (UniProt Q8IYU8),-0.253,0.121,-0.0128,0.289
MED4 C162 (UniProt Q9NPJ6),0.441,-0.26,0.618,-0.121
MIF4GD C49 (UniProt A9UHW6),-0.196,0.355,-0.464,0.128
MON2 C28 (UniProt Q7Z3U7),-0.283,-0.219,0.157,-0.00169
MGST1 C50 (UniProt P10620),-0.103,-0.0794,-0.356,-0.101
METTL16 C253 (UniProt Q86W50),0.395,0.5,-0.323,0.347

Target,log2 mean competition ratio ([1]; 50 µM),log2 mean competition ratio ([1]; 200 µM),log2 mean competition ratio ([2]; 50 µM),log2 mean competition ratio ([2]; 200 µM)
MGA C1001 (UniProt Q8IWI9),0.558,0.296,-0.149,-0.0861
MED28 C80 (UniProt Q9H204),0.00227,-0.0828,0.0499,-0.0266
MDN1 C1867 (UniProt Q9NU22),-0.0249,0.152,-0.429,0.00749
MPV17L2 C198 (UniProt Q567V2),-0.104,-0.167,-0.357,-0.0102
MON2 C212 (UniProt Q7Z3U7),0.346,0.0304,0.617,0.0457
METTL13 C391 (UniProt Q8N6R0),-0.367,-0.149,-0.45,-0.12
MEX3C C235 (UniProt Q5U5Q3),-0.503,0.248,-0.327,0.311
MDN1 C979 (UniProt Q9NU22),0.218,-0.00679,0.117,0.0681
MMACHC C182 (UniProt Q9Y4U1),0.111,-0.338,0.0216,-0.137
MMS22L C1120 (UniProt Q6ZRQ5),-0.0672,-0.147,-0.576,-0.269
MIIP C260 (UniProt Q5JXC2),-0.245,-0.0874,0.0528,0.0899
MKI67 C3199 (UniProt P46013),0.273,0.328,0.204,0.134
MRM3 C290 (UniProt Q9HC36),0.326,0.169,0.63,0.218
MKRN1 C98 (UniProt Q9UHC7),0.0668,-0.0148,-0.0394,-0.0683
MICALL2 C271 (UniProt Q8IY33),0.178,0.00157,0.0961,0.171
MGME1 C79 (UniProt Q9BQP7),-0.308,-0.0393,-0.126,-0.0499
MGMT C150 (UniProt P16455),-0.389,,0.102,-0.412
MDN1 C2030 (UniProt Q9NU22),0.275,-0.612,-0.0326,-0.515
MEPCE C419 (UniProt Q7L2J0),0.397,0.111,0.505,0.169

# Just log2 mean competition ratio ([1]; 200 µM), log2 mean competition ratio ([2]; 50 µM) and log2 mean competition ratio ([2]; 200 µM), for some of the entries so far:
Target,log2 mean competition ratio ([1]; 200 µM),log2 mean competition ratio ([2]; 50 µM),log2 mean competition ratio ([2]; 200 µM)
MON2 C212 (UniProt Q7Z3U7),0.0304,0.617,0.0457
MGME1 C79 (UniProt Q9BQP7),-0.0393,-0.126,-0.0499
